Series [1] deals with TATA-binding protein (TBP). As to the kind of experiment: electrochemical (E-DNA, square wave voltammetry). To be noted: 200 nM TBP, current change significantly less than with ENOX2 (p<0.0001); internal methylene blue on thymine T21 (printed after ...CATCTTT); 5' disulfide linker reduced to thiol; E-DNA: PBS pH 7.4 (137 mM NaCl, 10 mM Na2HPO4, 1.8 mM KH2PO4, 2.7 mM KCl, 1 mM MgCl2), 10 min equilibration; temperature not stated; recombinant protein; label: methylene blue, 5' thiol on gold electrode; single-stranded DNA.

By UniProt entry, the sequences of proteins in these tests, tags left out. Residues count along the entry.
UniProt P02769, 25-607: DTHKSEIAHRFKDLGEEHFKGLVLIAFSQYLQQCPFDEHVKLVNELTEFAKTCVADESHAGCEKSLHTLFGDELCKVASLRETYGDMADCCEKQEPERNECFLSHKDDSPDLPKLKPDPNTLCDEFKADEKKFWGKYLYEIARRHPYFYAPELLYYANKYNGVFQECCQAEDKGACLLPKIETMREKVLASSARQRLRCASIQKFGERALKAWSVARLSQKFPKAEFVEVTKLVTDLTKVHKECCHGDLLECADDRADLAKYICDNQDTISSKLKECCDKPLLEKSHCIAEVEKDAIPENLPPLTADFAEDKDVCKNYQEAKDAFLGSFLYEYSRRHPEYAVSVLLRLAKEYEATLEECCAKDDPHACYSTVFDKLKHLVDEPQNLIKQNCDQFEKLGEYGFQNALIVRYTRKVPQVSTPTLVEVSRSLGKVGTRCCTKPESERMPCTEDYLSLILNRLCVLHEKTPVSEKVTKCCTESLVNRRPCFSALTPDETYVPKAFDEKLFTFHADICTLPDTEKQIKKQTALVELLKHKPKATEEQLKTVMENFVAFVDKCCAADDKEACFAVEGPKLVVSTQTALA

Series [2] addresses bovine serum albumin (BSA) (Bos taurus) (UniProt P02769). Nature of the series: electrochemical (E-DNA, square wave voltammetry). To be noted: 500 nM BSA, current change significantly less than with ENOX2 (p<0.0001); internal methylene blue on thymine T21 (printed after ...CATCTTT); 5' disulfide linker reduced to thiol; E-DNA: PBS pH 7.4 (137 mM NaCl, 10 mM Na2HPO4, 1.8 mM KH2PO4, 2.7 mM KCl, 1 mM MgCl2), 10 min equilibration; temperature not stated; label: methylene blue, 5' thiol on gold electrode; single-stranded DNA.

Here are results for one sequence from PMC10377175.

For at least one entry, the source does not settle the construct or the ends of the probe. A weaker result is weaker than the reference pair of the same experiment.

Turning to “TAAAGATCCCTGTTCATCTTTTCTCGAGTGTTCTTTAGAACAATGAATCTTT [ENOX2 E-DNA biosensor aptamer]”, the binding result in series [1] and in series [2] was “binds more weakly” throughout.
